No constants are given. Whether binding was seen depends on the method and setting. Binding seen in cells or lysates may run through a third protein. Some binding calls cover weakened binding; strength is not graded here. For some of these results: Where a sequence is shown, tags or fusion partners need not be part of it.
T1: MYCL with C-terminal 3xHA tag, wild type (human) (UniProt P12524)
T1 sequence: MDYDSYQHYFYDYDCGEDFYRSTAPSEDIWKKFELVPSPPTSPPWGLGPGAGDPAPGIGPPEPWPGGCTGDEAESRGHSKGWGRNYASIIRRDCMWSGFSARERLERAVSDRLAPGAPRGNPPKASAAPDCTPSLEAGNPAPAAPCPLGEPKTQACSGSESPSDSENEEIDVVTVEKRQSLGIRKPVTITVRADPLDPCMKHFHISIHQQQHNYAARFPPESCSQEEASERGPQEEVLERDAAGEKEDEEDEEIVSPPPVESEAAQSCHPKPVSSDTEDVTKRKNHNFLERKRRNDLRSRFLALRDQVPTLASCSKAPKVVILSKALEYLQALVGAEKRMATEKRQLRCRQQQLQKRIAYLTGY

By UniProt entry, the sequences of proteins in these tests, tags left out.
UniProt P61244: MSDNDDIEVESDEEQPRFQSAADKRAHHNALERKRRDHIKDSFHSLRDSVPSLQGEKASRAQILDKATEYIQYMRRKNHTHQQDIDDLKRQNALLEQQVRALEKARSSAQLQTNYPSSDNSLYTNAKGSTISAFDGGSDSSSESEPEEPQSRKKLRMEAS
UniProt P67775: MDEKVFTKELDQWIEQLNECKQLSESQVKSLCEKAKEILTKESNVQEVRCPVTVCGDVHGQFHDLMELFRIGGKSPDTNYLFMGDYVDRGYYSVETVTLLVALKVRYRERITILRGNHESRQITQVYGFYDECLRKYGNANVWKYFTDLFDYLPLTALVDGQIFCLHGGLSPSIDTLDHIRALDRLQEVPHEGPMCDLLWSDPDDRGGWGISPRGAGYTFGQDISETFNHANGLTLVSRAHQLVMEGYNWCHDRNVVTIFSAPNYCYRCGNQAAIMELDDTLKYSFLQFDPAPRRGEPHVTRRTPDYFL


Experiments:
[1] = biological target: EP400 (human (endogenous in MKL-1)) (UniProt Q96L91); assay: co-IP; MKL-1 lysates (EBC buffer), endogenous proteins; antibodies on protein G Dynabeads overnight at 4°C, five washes with 300 mM NaCl buffer, immunoblot; includes cells with shScr, shPanT, shST, Dox-inducible shMYCL, mirMYCL or shEP400
[2] = biological target: T1, MYCL with C-terminal 3xHA tag, wild type (human); assay: co-IP; lysates of HCT116 cells stably expressing C-terminal 3xHA-tagged MYCL constructs without ST; immunoprecipitated with HA antibody and blotted
[3] = biological target: ACTL6A (human (endogenous in MKL-1)) (UniProt O96019); assay: co-IP; MKL-1 lysates (EBC buffer), endogenous proteins; antibodies on protein G Dynabeads overnight at 4°C, five washes with 300 mM NaCl buffer, immunoblot; includes cells with shScr, shPanT, shST, Dox-inducible shMYCL, mirMYCL or shEP400
[4] = biological target: EPC1 (human (endogenous in MKL-1)) (UniProt Q9H2F5); assay: as above
[5] = biological target: MAX (human (endogenous in MKL-1 and the other cell lines)) (UniProt P61244); assay: as above
[6] = biological target: VPS72 (human (endogenous in MKL-1)) (UniProt Q15906); assay: as above

Molecule	binding [1]	binding [5]	also measured
DMAP1 (from UniProt Q9NPF5 1-467)	binds		
MAX (from UniProt P61244 1-160)			binding [2]: binds
PPP2CA (from UniProt P67775 1-309)	binds	binds	binding [3]: binds; binding [4]: binds; binding [6]: binds
TRRAP (from UniProt Q9Y4A5 1-3859)	binds		
YEATS4 (from UniProt O95619 1-227)	binds		
MYCL (protein, UniProt P12524 1-364) MDYDSYQHYFYDYDCGEDFYRSTAPSEDIWKKFELVPSPPTSPPWGLGPGAGDPAPGIGPPEPWPGGCTGDEAESRGHSKGWGRNYASIIRRDCMWSGFSARERLERAVSDRLAPGAPRGNPPKASAAPDCTPSLEAGNPAPAAPCPLGEPKTQACSGSESPSDSENEEIDVVTVEKRQSLGIRKPVTITVRADPLDPCMKHFHISIHQQQHNYAARFPPESCSQEEASERGPQEEVLERDAAGEKEDEEDEEIVSPPPVESEAAQSCHPKPVSSDTEDVTKRKNHNFLERKRRNDLRSRFLALRDQVPTLASCSKAPKVVILSKALEYLQALVGAEKRMATEKRQLRCRQQQLQKRIAYLTGY		binds	
